## Screening data, single-dose tests

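Whole-cell growth test on Mycobacterium tuberculosis, read after 4 days in a medium based on cholesterol and the lipid DPPC; the read-out is not stated. Concentration: 500 µM. Direction is inferred from retests: higher values go with more growth inhibition. About 18,000 compounds were tested under these conditions; 5% (about 900) showed 50% or more at least once.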

Results are given as percent effect. How 0% and 100% were set is not recorded. Most values in the screen are low, and negative values occur. This is an unselected part of the compounds tested.

For CCN(C)c1ccc(CO)cc1 the result was -31.69%. COc1cccc(C(=O)N2CCCNCC2)c1 gave -3.277%. With COCCN(C)CCN1CC2(CCN(C)CC2)OC1=O the screen gave 2.083%. CS(=O)(=O)CC1CCCN(c2nnc(C3CC3)o2)C1 (centres unmarked) read 12.17%. Result for Cc1cc(NC(=O)CCNC(=O)C2CCCC2)n(C)n1 was 2.897%. Result for O=C(NC1CN(c2ccc(C(F)(F)F)cn2)C1)C1CC1 was -4.06%.

CNC(=O)NC(=O)CCN1CCC(c2ccn[nH]2)CC1 gave -17.98%. With O=C(NCCOCC1CCC1)c1ncccc1Br the screen gave 15.19%. For O=C(NCC(F)(F)F)c1ccc(Cn2cccn2)cc1 the result was 28.38%. CN(C)C(=O)N1CCC(C(=O)NCC2CC2)CC1 read -1.403%. For CNc1cc(OC)ccn1 the result was 7.066%. Result for CC(C(N)=O)N1CCC(=Cc2ccccc2)CC1 (centres unmarked) was 90.35%.

CCOc1ccc(Cl)cc1CNc1nnnn1C read 24.21%. With Cn1ccnc1CN1CCNCC1 the screen gave 34.37%. With CNc1snc(C)c1C(=O)N1CCC2(CC1)OCCO2 the screen gave -14.27%. O=C(CNc1ccccc1F)NC1CC1 gave -5.97%. CNc1ccnc(C(N)=O)c1 read -28.68%. Cc1nc(C(N)c2ccc(Cl)cc2)no1 (centres unmarked) gave 17.68%.

Result for O=C(NCc1nnc2n1CCCCC2)c1ccoc1 was -4.369%. For CC(=O)[C@@H]1CCCCN1 the result was -10.62%. Result for CCOc1ncccc1C(=O)OC(C)C(=O)NC1CC1 (centres unmarked) was 9.848%. With CC(=O)N(CC(=O)OC(C)(C)C)C1CCCNCC1 (centres unmarked) the screen gave 41.53%. CC(NCCCn1cccn1)c1ccc2c(c1)OCO2 (centres unmarked) read 26.75%. N#CC1(C(=O)NCc2ccc(O)c(F)c2)CCCC1 read 22%.

For CC(C)N1CCN(C(=O)c2n[nH]c3c2CCCC3)CC1 the result was 2.594%. With CCOC(=O)C(C)Nc1ccc2c(c1)CCCC(=O)N2 (centres unmarked) the screen gave 71.35%. For COCCn1cncc1CNC(=O)CN1CCCC1 the result was 5.333%. For CCCC1c2nccn2CCCN1C(=O)c1cocn1 (centres unmarked) the result was -7.35%. Result for CC(C)(C)SCCN1CCOC2(CCOCC2)C1 was -10.1%. CC(c1cccnc1)N(C)C(=O)c1cncc(F)c1 (centres unmarked) read 10.91%.

CCc1nc(N)nc(NCC(O)CN(C)C)c1C (centres unmarked) gave 6.172%. NC(=O)COCCNC(=O)CC1CCCCC1 read -3.447%. For CCC(C)C(=O)Nc1ccc2[nH]nc(C(=O)OC)c2c1 (centres unmarked) the result was -13.89%. Result for C[C@H](N)c1ccc(-n2cccn2)c(F)c1 was 7.318%. For COc1ccnc(N2CCN(C(=O)CSC)CC2)n1 the result was 5.831%. CN1CCCCC1C(=O)NCCOCc1ccccc1 (centres unmarked) read 19.13%.

Result for O=C(C1CCCN(C2CCNCC2)C1)N1CCOCC1 (centres unmarked) was -5.305%. Result for COC(=O)c1ccc(NC(=O)CCn2cnnn2)cc1 was 23.23%. Cc1noc(C2COCCN2Cc2cncs2)n1 (centres unmarked) read 1.193%. Result for C1CC(CN2CCOCC2)CN1 (centres unmarked) was 1.305%. CN(CCn1cccn1)c1cc(Br)ccn1 read 48.88%. With Cc1ccsc1C(=O)N(C)Cc1cn[nH]c1 the screen gave 14.03%.

With CC(Cc1ccccc1F)NC1(C(N)=O)CC1 (centres unmarked) the screen gave 7.764%. With N#Cc1ccc(CN2CCn3ccnc3C2)cc1 the screen gave 0.9313%. For CCO[C@H]1CN(CCc2cccc(C)n2)C[C@@H]1O the result was 31.22%. Result for CN1CCOC(CNc2nccs2)C1 (centres unmarked) was 3.364%. Result for COc1cccc(OC2CNC2)c1 was 39.37%. Result for NCCS(=O)(=O)NCc1ccccc1 was 19.27%.

With Cn1cc(Br)c(=O)c(NC(=O)c2ccc(O)cc2F)c1 the screen gave 3.635%. Result for NCC(=O)N1CCC(C(N)=O)CC1 was 4.612%. N#Cc1ccc(NC(=O)Cn2ccnc2)cc1 gave 14.19%. CC(=O)c1cnnn1C read -4.569%.

Repeated from the top, 6 entries:

| structure | effect |
|---|---|
| `CCN(C)c1ccc(CO)cc1` | -31.69 |
| `COc1cccc(C(=O)N2CCCNCC2)c1` | -3.277 |
| `COCCN(C)CCN1CC2(CCN(C)CC2)OC1=O` | 2.083 |
| `CS(=O)(=O)CC1CCCN(c2nnc(C3CC3)o2)C1` (centres unmarked) | 12.17 |
| `Cc1cc(NC(=O)CCNC(=O)C2CCCC2)n(C)n1` | 2.897 |
| `O=C(NC1CN(c2ccc(C(F)(F)F)cn2)C1)C1CC1` | -4.06 |

The values are deposited in ChEMBL (CHEMBL3988442, “University of Dundee, Small-Polar-MMV Screening Library” (2021)).